Measured values from article PMC4879639.
No constants are given. Whether binding was seen depends on the method and setting. Some entries that bind do so weakly or less than the wild type. Where a sequence is shown, tags or fusion partners need not be part of it.

Chains of the proteins cited; added tags and fusions are not shown. Residues count along the entry.
UniProt Q6PHU5, residues 74-754: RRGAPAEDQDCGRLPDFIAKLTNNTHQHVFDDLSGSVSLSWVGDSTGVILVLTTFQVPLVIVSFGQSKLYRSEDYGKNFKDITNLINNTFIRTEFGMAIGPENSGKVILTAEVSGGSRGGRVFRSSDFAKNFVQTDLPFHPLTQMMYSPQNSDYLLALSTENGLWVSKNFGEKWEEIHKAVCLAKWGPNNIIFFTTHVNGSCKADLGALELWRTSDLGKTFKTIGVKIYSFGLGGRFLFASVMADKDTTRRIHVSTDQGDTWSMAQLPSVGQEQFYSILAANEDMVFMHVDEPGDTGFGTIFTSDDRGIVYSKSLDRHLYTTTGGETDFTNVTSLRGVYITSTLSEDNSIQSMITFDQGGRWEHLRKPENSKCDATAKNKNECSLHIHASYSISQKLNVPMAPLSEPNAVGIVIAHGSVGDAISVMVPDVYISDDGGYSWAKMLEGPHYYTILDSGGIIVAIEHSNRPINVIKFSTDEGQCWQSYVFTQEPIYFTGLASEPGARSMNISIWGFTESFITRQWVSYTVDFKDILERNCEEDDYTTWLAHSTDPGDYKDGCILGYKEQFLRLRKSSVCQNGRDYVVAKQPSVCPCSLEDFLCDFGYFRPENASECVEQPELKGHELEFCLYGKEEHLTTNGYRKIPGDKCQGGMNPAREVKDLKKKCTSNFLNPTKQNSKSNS

These binders were tested against recombinant mouse sortilin (mouse) (UniProt Q6PHU5) (assay: SPR; recombinant sortilin immobilised; cytokines flowed at various concentrations; Biacore X; curves after subtraction of binding to a BSA-coated flow cell; kinetic parameters by BIAevaluation software; both purified).

| Binder | binding |
| --- | --- |
| recombinant IL-10 (ligand, UniProt P18893 19-178) SRGQYSREDNNCTHFPVGQSHMLLELRTAFSQVKTFFQTKDQLDNILLTDSLMQDFKGYLGCQALSEMIQFYLVEVMPQAEKHGPEIKEHLNSLGEKLKTLRMRLRRCHRFLPCENKSKAVEQVKSDFNKLQDQGVYKAMNEFDIFINCIEAYMMIKMKS | binds |
| GST-fused mouse IFN-α (ligand, UniProt P01573 24-190) CDLPHTYNLRNKRALKVLAQMRRLPFLSCLKDRQDFGFPLEKVDNQQIQKAQAIPVLRDLTQQTLNLFTSKASSAAWNATLLDSFCNDLHQQLNDLQTCLMQQVGVQEPPLTQEDALLAVRKYFHRITVYLREKKHSPCAWEVVRAEVWRALSSSVNLLPRLSEEKE | binds |
| recombinant IL-6 (ligand, UniProt P08505 25-211) FPTSQVRRGDFTEDTTPNRPVYTTSQVGGLITHVLWEIVEMRKELCNGNSDCMNNDDALAENNLKLPEIQRNDGCYQTGYNQEICLLKISSGLLEYHSYLEYMKNNLKDNKKDKARVLQRDTETLIHIFNQEVKDLHKIVLPTPISNALLTDKLESQKEWLRTKTIQFILKSLEEFLKVTLRSTRQT | binds |
| recombinant IL-1β (ligand, UniProt P10749 118-269) VPIRQLHYRLRDEQQKSLVLSDPYELKALHLNGQNINQQVIFSMSFVQGEPSNDKIPVALGLKGKNLYLSCVMKDGTPTLQLESVDPKQYPKKKMEKRFVFNKIEVKSKVEFESAEFPNWYISTSQAEHKPVFLGNNSGQDIIDFTMESVSS | no binding |
| recombinant IL-12 (complex, UniProt P43431 23-215; P43432 23-335) chain 1: RVIPVSGPARCLSQSRNLLKTTDDMVKTAREKLKHYSCTAEDIDHEDITRDQTSTLKTCLPLELHKNESCLATRETSSTTRGSCLPPQKTSLMMTLCLGSIYEDLKMYQTEFQAINAALQNHNHQQIILDKGMLVAIDELMQSLNHNGETLRQKPPVGEADPYRVKMKLCILLHAFSTRVVTINRVMGYLSSA chain 2: MWELEKDVYVVEVDWTPDAPGETVNLTCDTPEEDDITWTSDQRHGVIGSGKTLTITVKEFLDAGQYTCHKGGETLSHSHLLLHKKENGIWSTEILKNFKNKTFLKCEAPNYSGRFTCSWLVQRNMDLKFNIKSSSSSPDSRAVTCGMASLSAEKVTLDQRDYEKYSVSCQEDVTCPTAEETLPIELALEARQQNKYENYSTSFFIRDIIKPDPPKNLQMKPLKNSQVEVSWEYPDSWSTPHSYFSLKFFVRIQRKKEKMKETEEGCNQKGAFLVEKTSTEVQCKGGNVCVQAQDRYYNSSCSKWACVPCRVRS | binds |

Second part, the binder after the results:

| binding | Binder |
| --- | --- |
| binds | recombinant IL-17A (ligand, UniProt Q62386 26-158) AAIIPQSSACPNTEAKDFLQNVKVNLKVFNSLGAKVSSRRPSDYLNRSTSPWTLHRNEDPDRYPSVIWEAQCRHQRCVNAEGKLDHHMNSVLIQQEILVLKREPESCPFTFRVEKMLVGVGCTCVASIVRQAA |
| binds | recombinant IFN-γ (ligand, UniProt P01580 23-155) HGTVIESLESLNNYFNSSGIDVEEKSLFLDIWRNWQKDGDMKILQSQIISFYLRLFEVLKDNQAISNNISVIESHLITTFFSNSKAKKDAFMSIAKFEVNNPQVQRQAFNELIRVVHQLLPESSLRKRKRSRC |
